## Results of single-concentration screens

The chains behind the UniProt entries cited, without tags or fusion partners.
UniProt P9WNZ1, whole entry: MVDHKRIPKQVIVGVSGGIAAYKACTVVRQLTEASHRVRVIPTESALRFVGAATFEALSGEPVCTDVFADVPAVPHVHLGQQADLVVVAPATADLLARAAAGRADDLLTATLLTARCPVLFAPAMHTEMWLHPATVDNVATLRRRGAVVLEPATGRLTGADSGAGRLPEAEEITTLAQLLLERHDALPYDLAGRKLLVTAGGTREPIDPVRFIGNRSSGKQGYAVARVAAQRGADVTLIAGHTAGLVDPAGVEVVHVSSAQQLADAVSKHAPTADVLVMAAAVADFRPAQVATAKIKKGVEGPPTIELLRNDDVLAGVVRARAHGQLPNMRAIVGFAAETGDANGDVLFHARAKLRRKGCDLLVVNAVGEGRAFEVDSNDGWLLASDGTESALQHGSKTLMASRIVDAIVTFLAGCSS
UniProt P9WFT3, whole entry: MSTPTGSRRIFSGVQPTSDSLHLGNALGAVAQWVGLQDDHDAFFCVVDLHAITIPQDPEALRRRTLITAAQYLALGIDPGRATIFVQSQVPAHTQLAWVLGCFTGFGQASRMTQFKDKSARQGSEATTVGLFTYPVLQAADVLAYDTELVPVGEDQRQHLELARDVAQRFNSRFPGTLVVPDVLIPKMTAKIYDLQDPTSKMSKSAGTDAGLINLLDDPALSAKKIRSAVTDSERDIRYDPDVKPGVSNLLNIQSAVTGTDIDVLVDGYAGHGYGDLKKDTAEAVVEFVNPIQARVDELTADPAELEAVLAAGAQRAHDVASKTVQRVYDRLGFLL

The values are deposited in ChEMBL (CHEMBL3988442, “University of Dundee, Small-Polar-MMV Screening Library” (2021)).

The filed quantity is “Percent Effect” (%).
How 0% and 100% were set is not recorded. Most values in the screen are low, and negative values occur.
This is an unselected part of the compounds tested.
Two or more numbers in one place are separate tests of the same structure; such repeats can differ widely.

A: 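Enzyme assay of CoaBC with a phosphate dye (Biomol Green) read at 650 nm. Target: Coenzyme A biosynthesis protein CoaBC, Mycobacterium tuberculosis (UniProt P9WNZ1). Compounds at 30 µM. Direction is inferred from only a few compounds that gave an IC50; most scored high, so higher reads as stronger inhibition. Most strong results did not repeat in a second test. Of about 67,000 compounds tested this way, about 40 (0.06%) reached 50% or more in at least one test.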
B: 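Tryptophan-tRNA ligase, Mycobacterium tuberculosis (UniProt P9WFT3). Enzyme assay of tryptophanyl-tRNA synthetase; the read-out is not stated. Compounds at 10 µM. Higher most likely means stronger inhibition; the record gives no direction and few retests gave an IC50. About 65,000 compounds were tested under these conditions; 0.098% (about 64) showed 50% or more at least once.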

- CC(C)[C@H](Nc1cc(-c2ccncc2)nc2ccnn12)C(N)=O | A: 1.79%; B: 2.992%
- Cc1ccc2c(c1)C(NCc1nccn1Cc1ccccc1)CCCO2 (configuration not stated) | A: -0.4202%; B: -2.916%
- Cc1cnn(CC2CCCCN2C(=O)c2ccc(C#N)c(C)n2)c1 (configuration not stated) | A: 8.974%; B: -3.498%
- Cc1cc(CN2C[C@@H](N3CCN(C)CC3)[C@H]3OCCC[C@H]32)oc1C | A: -18.22%; B: 0.2549%
- Cc1nc(-c2ccc(F)c(F)c2)cc(C2CCNCC2)n1 | A: 1.35%; B: -4.92%
- O=C(C1CC=CC1)N1CCC2(CC1)OCCO2 | A: 2.286%; B: -1.321%
- Cn1cc(CCNC(=O)N2CCCC(c3nncn3C)C2)cn1 (configuration not stated) | A: 3.823%; B: -6.671%
- CNS(=O)(=O)c1cccc(CNC(=O)c2cnn(C)c2C)c1 | A: 6.838%; B: -3.926%
- Cc1nc(Cn2c3c(ccc2=O)CC(NC(N)=O)CC3)cs1 (configuration not stated) | A: 3.713%
- Cc1cccc(CNC(=O)c2cccnc2N)c1 | A: 3.421%; B: 17.2%
- Cc1ccc(C(C(=O)O)N(C)CCN2CCOCC2)c(F)c1 (configuration not stated) | A: 8.779%; B: -5.008%
- Cc1ccc(OCC(O)CN2CCc3c(ncn3C3CC3)C2)cc1 (configuration not stated) | A: 2.35%; B: -5.781%
- COc1ccnc(NC(Cc2ccccc2)C(=O)N(C)C)n1 (configuration not stated) | A: -1.025%; B: 8.845%
- O=C(NCCO)C1(Cc2ccccc2-c2ccncc2)CCOCC1 | A: -4.821%; B: -6.588%
- O=C(C1CCN(Cc2nc(-c3ccco3)no2)CC1)N1CCCC1 | A: 0.3831%; B: 11.08%
- CCC(CC#N)n1ccc(C(F)(F)F)n1 (configuration not stated) | A: -0.8589%
- CO[C@@H]1CC[C@H]2[C@H]1OCCN2C(=O)c1ccc(C)nc1 | A: -1.961%; B: -4.056%
- C[S+]([O-])c1nncn1CC(=O)c1ccc(Cl)c(Cl)c1 (configuration not stated) | A: -2.116% & 21.15%; B: 3.688%
- CCOc1ncccc1NC(=O)NC1CCN(C(C)=O)CC1 | A: -4.021%; B: 0.6246%
- CC(C)(C)CN(CCC#N)C(=O)Cc1ccc(-n2cnnn2)cc1 | A: -3.175%; B: -1.652%
- Cc1ncc(CN2CCOC(c3ccc(-c4cnn(C)c4)cn3)C2)s1 (configuration not stated) | A: 5.596%; B: -3.188%
- O=c1[nH]c(N2CCCCC2)nc2c1CCN(Cc1cccnc1)C2 | A: -0.2451%
- Cc1nc2c(c(NCc3ccccc3)n1)CCN(C(=O)C1CCC1)CC2 | A: 5.882%; B: -0.315%
- Cc1nc(C2CCCNC2)cc(N(C)CCc2cn[nH]c2)n1 (configuration not stated) | A: 6.866%; B: -1.407%
- O=C(CCN1CCCC1=O)NCc1cccnc1Oc1ccccc1 | A: 9.677%; B: -0.4112%
- CN(C)C(C(=O)N1CC(c2ccccn2)C1)c1cccc(F)c1 (configuration not stated) | A: 5.785%; B: -2.805%
- O=S(=O)(c1ccc(F)cc1)N1CCCCC1c1cc[nH]n1 (configuration not stated) | A: -20.15%
- O=C(c1cc(C2CC2)on1)N1CCCC(n2cncn2)C1 (configuration not stated) | A: 5.699%; B: 3.192%

Repeated from the top, 2 entries:

CC(C)[C@H](Nc1cc(-c2ccncc2)nc2ccnn12)C(N)=O read A: 1.79%; B: 2.992%.
Cc1ccc2c(c1)C(NCc1nccn1Cc1ccccc1)CCCO2 (configuration not stated) read A: -0.4202%; B: -2.916%.